The source of these data is PubChem BioAssay AID1347423 (Functional Genomics Laboratory (NCATS/FGL), 2020).

The campaign covered roughly 52,000 sequences. About 210 (0.4%) were called active.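 Rule for the calls: active = gene whose silencing raises cell survival under the drug, median off-target-corrected z-score across its silencing RNAs 2 or more; inactive = the rest.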 Some of the results follow.

The nature of this experiment: Resistance to Poly (ADP-Ribose) Polymerase inhibitor: Gene Identification via Genome-wide siRNA Screen. Particulars: mouse BRCA2 R2336H ES cells, olaparib, CellTiter-Glo viability; active compounds read high. A digest of the protocol: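 Mouse BRCA2 R2336H ES cells were reverse-transfected with siRNA (20 nM final), treated at 48 h with 500 nM olaparib, and read by CellTiter-Glo after 72 h. Scores: MAD-based z per siRNA, median per gene, seed off-target correction.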
With CCGUUUUUAAAGCGGGCCATT against BC023818, the z-score was inactive: 0.681.

Take GGAUGUGGUGGAAGAUUUCTT against Krt2-7: the z-score was inactive: 1.55.

Consider “GGAUAUCACCUUCGAGAUATT against 4930532L20Rik”, for which the z-score is inactive: 0.987.

“GGUCCUAAUUCGAAGCAGATT against 0610039A15Rik”: the z-score was inactive: -1.88.

On to GGUGGAGUUAACGAGAAACTT against Cyr61, for which the z-score was inactive: 0.139.

GCACCAAAACAGGAAUUACTT against Fibp: the z-score was inactive: 0.573.

On to GGUUUACAGCAUCAUUAAATT against Shmt1, for which the z-score was inactive: 1.2.

CCUCGCAUAAUUAAUUGUUTT against Prdm8: the z-score was inactive: 0.281.

Take “GCGAUCAAAAUUGUGUCACTT against A730017C20Rik”: the z-score was inactive: 1.12.

Consider GCCAGACUGGAGGUAAAAUTT against Serpinb10, for which the z-score was inactive: 0.717.

Regarding “CCUCCAGAGUAUUGUCUAGTT against 2410127E16Rik”, the z-score is inactive: -2.53.

Take GGUUUUUCAGCUUUGGAACTT against Decr1: the z-score was inactive: 0.315.

Take GGACACAUUCAUCUUAACATT against Twistnb: the z-score was inactive: -1.22.

Regarding GGCCAAGGAUAUUCAGUAUTT against Timp4, the z-score is inactive: 1.07.

Regarding CCAGGUUCUGUUGAGAAUCTT against Irak1bp1, the z-score was inactive: -1.68.

In the case of GGUGCCAUCCCAAACUUUATT against Frat2, the z-score was inactive: -1.02.

On to GGUGGAUGAUAAUGUUCUUTT against Gcnt3, for which the z-score is inactive: -0.466.

As to GGAGUUUAGUGACGAUGUGTT against Zfp46, the z-score was inactive: -1.22.

As for “CGAAUUUUGGAGAUGUAUGTT against 4632434I11Rik”, the z-score was inactive: 0.365.

Regarding CCAUCCAUAUGAACUAUGATT against Slc30a4, the z-score is inactive: 0.431.

Take “GCUGGCUUUAAAAAUAUCUTT against C630002B14Rik”: the z-score is inactive: 0.461.

As to GCGCGUCUAAAGCCGUAAATT against Hist1h1c, the z-score is inactive: -0.274.

On to GGUAAAAUGAUCCUUAGAATT against Pcdh15, for which the z-score was inactive: 0.84.

Turning to GGAAGGCAACUCUUAGAAUTT against Olfr491, the z-score is inactive: 0.368.

Turning to “CCAGUAUGUACCACUAAGUTT against 4931440N07Rik”, the z-score is inactive: 0.862.

GGAAGAUUAUCUCUUUUGATT against Olfr1214: the z-score was inactive: -0.216.

In the case of GGAAGACAUGAAAUUGUUCTT against Psma3, the z-score was inactive: -2.92.

Take GGAGAAUGGCAUUUUUGAGTT against Pkp3: the z-score is inactive: 0.219.

Turning to GGGUCAGAUGGUACCAAGATT against Adamts18, the z-score is inactive: -1.17.

Consider GACGUGAUCUGCUUUUACUTT against AI428855, for which the z-score was inactive: -0.385.

As for GGAGAAGCCCUGAAUGAAGTT against Pik3c2g, the z-score is inactive: -1.5.

As for GGAUGAUCCACCGUCAAAATT against Il9, the z-score is inactive: 1.85.

Turning to GGCAGUCGAUUUAUAACUCTT against Clic5, the z-score was inactive: -0.409.

For the sequence GGGAGCGGAGCAAACAUAATT against Olfr1370, the z-score is inactive: 0.384.

Consider CCCUAGAUGAGAAUCAUAGTT against Jarid1c, for which the z-score was inactive: 1.17.

For GGCUGACAAGGAGAGCUUCTT against Pim3, the z-score is inactive: 0.74.

Turning to “CCUCAGGGAAACUAUGUGUTT against E030006K04Rik”, the z-score is inactive: -0.221.

With CCUAAAGUCCUUAGUCACATT against Zfp397, the z-score was inactive: 0.328.

In the case of GGCUCUGGAAAAGAACAACTT against Sds, the z-score was inactive: 2.11.

As to GGCCUUGGCAUCUAUUUAUTT against Tcf12, the z-score was inactive: 0.0849.

Regarding GCUAAGGUCUGUUAAACGCTT against Hyal3, the z-score was inactive: 0.137.

On to GCUGAUGAAGGUGAUACGUTT against Pnma2, for which the z-score is inactive: 0.0302.

For “CCUGUAUCCGUGACUUUUGTT against C230094B15Rik”, the z-score was inactive: 0.278.

As for GGAGUUUCAUCCUACCAACTT against Nodal, the z-score was inactive: -0.528.

For the sequence “CCUGACAGCACUUUGUGGATT against 9330140K16Rik”, the z-score is inactive: 1.12.

As for GUCCCUCUCUUCUUGGUGUTT against Olfr74, the z-score is inactive: -1.65.

“CGUAAGACGGAUGUACAUCTT against 2310010M20Rik”: the z-score is inactive: -0.284.

Take GGACAGAAUUUUACCCUAATT against Odz3: the z-score is inactive: -1.82.

Regarding CCCGGCCAUCUACACUUAUTT against Gpr6, the z-score was inactive: -0.608.

With GGAGACUGUCAGAAAGUUATT against Olfr1164, the z-score is inactive: -1.82.

For GCAAGAGUGAGAAUAUGUCTT against Fadd, the z-score was inactive: -0.159.

With GGUACUACACCUUUGAUGATT against Fibp, the z-score is inactive: 0.252.

For GAUCCGUUGGGAAAAGAACTT against Ssbp4, the z-score was inactive: -0.39.

As for “GGGUGACAACGGUUCUUACTT against 6430529G09Rik”, the z-score is inactive: -1.66.

Take GGUGGUGUAAUCAAAUGUATT against Vps24: the z-score is inactive: -0.977.

Regarding GGAAAUUUUCCAUCAUGAATT against Scn8a, the z-score is inactive: 1.27.

GCAAUGGACUACUGCUGCUTT against Olfr704: the z-score is inactive: -2.16.

Turning to CGAUGAUCGGCUCAACAAGTT against Rplp2, the z-score is inactive: -1.57.

For GGACUUACUGCUAAGAGCUTT against Stx8, the z-score is inactive: -0.77.

For GGCACGCAUAUUCAACGAATT against Copg2, the z-score is inactive: 0.693.

In the case of CCUUGUUACUAUACUACACTT against Ppp1r2, the z-score is inactive: -0.562.

Regarding GGAAAUAUGGCAAGAAUUUTT against Rgs7, the z-score was inactive: 0.896.

With GGUGGACAGGAGAAAGGAATT against Npy6r, the z-score was inactive: -1.34.

With GGUGGUCCUUCCCUAAAGATT against Il11, the z-score is inactive: 1.1.

Regarding “GGCUAAGCUGAAGAAGCACTT against 2310046O06Rik”, the z-score is inactive: -1.34.

GGAAGUUAAAACCCUACUUTT against Trh: the z-score is inactive: -1.28.

Consider GCUCCUAAUGAAAUGGUUUTT against Kif2a, for which the z-score is inactive: 0.123.

For the sequence GGCACACUCACUCCUUUGATT against C79407, the z-score is inactive: -2.3.

On to GCAACUGAGGCUUUCUUUGTT against Copg, for which the z-score was inactive: -0.942.

As for GGGAAUAUGACUGAAUAUATT against Ss18, the z-score was inactive: 0.113.

With GGAGUACAGUGAUGACAAGTT against Ing5, the z-score is inactive: 0.235.

Turning to GGAUAAAUCUCACUUCACATT against Etf1, the z-score is inactive: -1.87.

“GGAACUCAUUAUGAUCUCCTT against 2410004C24Rik”: the z-score was inactive: 0.0941.

On to GCCAAUAACUUCACUGAUATT against Pi15, for which the z-score was inactive: -0.057.

With CCCGGAGAAAUACAUUAAGTT against Exoc7, the z-score is inactive: 0.127.

Turning to GCUACAGUGAUACAUUAGATT against Zfp69, the z-score was inactive: 0.373.

As for CGUUAUUUGCUGACAAUGUTT against Tas2r119, the z-score is inactive: 0.0676.

In the case of CCAAUUUUCAAGAUCGGUCTT against Akap2, the z-score was inactive: -0.162.

For the sequence “GGACAAACAUUGGAUUGAUTT against 0610009C03Rik”, the z-score was inactive: 0.453.

For the sequence “GGAGAAAAAGAUCUCAGCUTT against D830039M14Rik”, the z-score was inactive: 0.0848.

As to “GGCCUUACUAAAUAUACAUTT against 4931412G03Rik”, the z-score is inactive: 0.474.

For the sequence GGUCCUGUUGGAGAUGAUATT against Ube2d2, the z-score is inactive: -1.54.

Take GGAAAUCCAGAAGAAAUUATT against Stmn1: the z-score is inactive: 0.357.

GGAGCAGAAGAAAUAUCUUTT against Olfr13: the z-score is inactive: -0.493.

Take GGAAUUGCACUUUUCCAAUTT against Phlda1: the z-score was inactive: 1.34.

As to GCUGCUUUCGUGUAGAAUGTT against Snapc1, the z-score was inactive: -0.823.

As for GGCAAAUCUCAUGCAUAAUTT against Ahsg, the z-score is inactive: -0.254.

With GGUAACCGUGUUCUUAUGGTT against Fgf13, the z-score was inactive: -1.28.

With “GGUGGCCCUUAAACGGAAGTT against 4921511F01Rik”, the z-score is inactive: -1.62.

In the case of GGCUUUUGACCUCUUCGAUTT against Vav1, the z-score is inactive: 0.479.

Turning to “GGCAUGGAAAAUUCUAGGGTT against 1700030A21Rik”, the z-score was inactive: -0.0465.

Take GGUACAGAAUAUGUCACAGTT against Olfm3: the z-score was inactive: 0.413.

With GGAGGUGCUAACCUAACAGTT against Ggh, the z-score is inactive: 0.22.

Regarding GGACAUUGCUAACUGCCUUTT against Snx16, the z-score is inactive: -1.74.

Turning to GGCAAGAGGUAUCAAGGUGTT against Ctsd, the z-score was inactive: 2.2.

With “GCUUCAACAUGCUUUGUUUTT against A430010J10Rik”, the z-score is inactive: -0.207.

With GCCACUCUGAUUCUCUAGATT against Cdc25a, the z-score was inactive: -0.00977.

GGAUUUGGGUUAGAUCUUUTT against Cpeb3: the z-score is inactive: 0.125.

With CCUAUCAGACUGUAAUAAGTT against Fbxl10, the z-score was inactive: 0.388.

Regarding “GCCAAGUUCUCGAAUAUUATT against 1200006O19Rik”, the z-score was inactive: 0.981.

Regarding GGAAAGUCUGUUUUUCACUTT against Adh5, the z-score was inactive: 0.149.

In the case of GCUCAGUACCGCACAACCATT against AW557805, the z-score is inactive: 0.762.

As to “GCGAGUAGGCAUGAUCGUUTT against A030011M19”, the z-score is inactive: 2.07.

With “GGAGUGUAUGCAGAAGUUUTT against 1700030A21Rik”, the z-score was inactive: -0.0931.
